In patent US8143222B2 (Washington University, priority 2007, dated 2012):

Test: peptide made by a vendor (peptide synthesis; HOBt)
Conditions: whole synthesis

With “EIWIAQEARRIGAEFNAYYAR (SW141 sigma-2 ligand conjugated; listed as Homo sapiens)” the “final purity (method not given)” value was “˜95% purity”.

End groups of sequences in plain letters are not given here.
